{
  "source": "paper PMC10266261",
  "about": "“A High-Throughput Approach to Identify Specific Neurotoxicants / Developmental Toxicants in Human Neuronal Cell Function Assays” (ALTEX, 2018)",
  "key": {"LUHMES cells": {"tested_on": "LUHMES cells", "assay": "cells", "assay_type": "cell-based", "conditions": "Homo sapiens, 24 h, read-out: EC50(NA), neurite area", "method": "For the NeuriTox test (= UKN4), LUHMES (Lund human mesencephalic) cells were characterized and cultured as described in detail earlier ([Krug et al., 2013]; [Lotharius et al., 2005]; [Scholz et al., 2011]). Briefly, cells were maintained in proliferation medium (PM: AdvDMEM/F12 supplemented with 2 mM glutamine, 1x N2 supplement and 40 ng/ml fibroblast growth factor-2) in PLO/fibronectin coated flasks (50 μg/ml poly-L-ornithine (PLO) and 1 μg/ml fibronectin). For differentiation, cells were seeded at a density of 46,000 cells/cm^2 in PM. […]\nThe procedure was applied as detailed earlier ([Hoelting et al., 2016]; [Stiegler et al., 2011]). […] Cells with normal-sized nuclei that were calcein-positive were counted as live cells, whereas H-33342 single-positive cells were counted as dead cells. Viability (V) was expressed as percentage of live cells relative to control.\nNeurite area (NA) and viability (V) were always expressed as percentage of the DMSO control. […] The variation of DMSO controls was calculated from pooled values of DMSO controls over several experiments.\nFor calculation of the benchmark concentration values (BMC), a benchmark response (BMR) of three standard deviations of DMSO solvent controls of all assay plates (= “3 x noise level”) was used. […] To identify specific effects on neurite outgrowth, the EC50 ratio of EC50(viability)/EC50(neurite area) was calculated. […]"}, "[1]": {"tested_on": "immature human dorsal root ganglia neurons", "assay": "cells", "assay_type": "cell-based", "conditions": "Neuron", "method": "The PeriTox test (= UKN5) is based on cells differentiated from the H9 human embryonic stem cell (hESC) line (WA09 line), which was obtained from WiCell (Madison, WI, USA). The import of cells and the experiments were authorized under license no. 170–79-1–4-27 (Robert Koch Institute, Berlin, Germany).\nAfter one hour, 25 μl PDM with 4x concentrated serial dilutions of the test compounds was added to the cells. At 23 h after treatment, the cells were stained with SM and incubated for one additional hour at 37°C.\nImage acquisition was performed with an ArrayScan VTI HCS (high content imaging) microscope (Cellomics, Waltham, MA, USA).\nAfter automated imaging, an algorithm was applied that identified the neuronal somata (based on identified nuclei) and subtracted the somatic area from the total neuronal area to obtain the neurite area (NA), i.e., the number of pixels per field covered by neurites. […] Viability (V) was expressed as percentage of live cells relative to control.\nNeurite area (NA) and viability (V) were always expressed as percentage of the DMSO control. In a first step, matched technical replicates were averaged. […] Curve fitting was performed employing a 4-parameter log-logistic function with least squares fit. […] The variation of DMSO controls was calculated from pooled values of DMSO controls over several experiments. […]"}},
  "note": "Where two headings read alike, the source gives them in different places.",
  "data": [
    {"molecule": "COc1cc2c(c(OC)c1OC)-c1ccc(OC)c(=O)cc1[C@@H](NC(C)=O)CC2", "note": "[Colchicine]", "values": [
      {"measurement": "EC50", "setting": "LUHMES cells", "value": 30, "unit": "nM"},
      {"measurement": "EC50", "setting": "[1]; 24 h, read-out: EC50(NA), neurite area", "value": 20, "unit": "nM"},
      {"measurement": "EC50", "setting": "[1]; read-out: EC50(V), viability, surrogate marked ♦", "value": 300, "unit": "nM"}
    ]}
  ]
}
